No constants are given. Whether binding was seen depends on the method and setting. Binding can be weak; no strength is given.
Key:
[1] = target: GST-WWP3 (MAGI-1) fusion protein (PDZ domains 1-2) (Homo sapiens); assay: A/G plate assays, Table 2 matrix
[2] = target: GST-DLG1 fusion protein (PDZ domains 1-2) (human); assay: A/G plate assays, Table 2 matrix
[3] = target: GST-NeDLG fusion protein (PDZ domains 1-2) (Mus musculus (Mouse)); assay: A/G plate assays, Table 2 matrix
[4] = target: GST-KIAA0561 PDZ domain fusion protein (human); assay: A/G assays, told in text
[5] = target: GST-KIAA0561 PDZ domain fusion protein (human); assay: A/G plate assays, Table 2 matrix
[6] = target: GST-WWP3 (MAGI-1) fusion protein (PDZ domains 1-2) (Homo sapiens); assay: PRISM MATRIX, told in text
[7] = target: GST-WWP3 (MAGI-1) fusion protein (PDZ domains 1-2) (Homo sapiens); assay: A/G assays, told in text
[8] = target: GST-DLG1 fusion protein (PDZ domains 1-2) (human); assay: A/G assays, told in text
[9] = target: GST-NeDLG fusion protein (PDZ domains 1-2) (Mus musculus (Mouse)); assay: A/G assays, told in text
[10] = target: GST-MPP2 PDZ domain fusion protein (Homo sapiens); assay: A/G assays, told in text
[11] = target: GST-MPP2 PDZ domain fusion protein (Homo sapiens); assay: A/G plate assays, Table 2 matrix
[12] = target: GST-DLG1 fusion protein (PDZ domains 1-2) (human); assay: G assay: biotinylated peptide on plate-bound GST-PDZ fusion, streptavidin-HRP, OD 450 nm
[13] = target: GST-NeDLG fusion protein (PDZ domains 1-2) (Mus musculus (Mouse)); assay: as above
[14] = target: GST-DLG1 fusion protein (PDZ domains 1-2) (human); assay: A assay and G assay
[15] = target: GST-DLG1 fusion protein (PDZ domains 1-2) (human); assay: G assay titration on plate-bound GST-PDZ fusion; GST-alone signal subtracted, normalised to the highest point (P-0050)
[16] = target: GST-NeDLG fusion protein (PDZ domains 1-2) (Mus musculus (Mouse)); assay: as above
[17] = target: GST-DLG1 fusion protein (PDZ domains 1-2) (human); assay: G assay competition on plate-bound GST-DLG1, competitor at 100 uM; blocked ligands: biotinylated Clasp 2 and CD46 (20 uM), Fas and KV1.3 (10 uM) peptides
[18] = target: GST-DLG1 fusion protein (PDZ domains 1-2) (human); assay: G assay competition, 100 uM competitor against 20 uM labeled Clasp 2 peptide
[19] = target: GST-LDP (Lim domain protein clp-36) PDZ domain fusion protein; assay: A/G plate assays, Table 2 matrix
[20] = target: GST-TIP-1 PDZ domain fusion protein (Homo sapiens); assay: A/G assays, told in text
[21] = target: GST-TIP-1 PDZ domain fusion protein (Homo sapiens); assay: A/G plate assays, Table 2 matrix
[22] = target: GST-TIP-1 PDZ domain fusion protein (Homo sapiens); assay: PRISM MATRIX, told in text
[23] = target: GST-TIP-1 PDZ domain fusion protein (Homo sapiens); assay: G assay on GST-TIP-1 (Tax 1-IP), 20 uM labeled peptide
[24] = target: GST-TIP-1 PDZ domain fusion protein (Homo sapiens); assay: G assay, various concentrations of 20-mer peptide on Tax1-IP GST/PDZ fusion
[25] = target: GST-LDP (Lim domain protein clp-36) PDZ domain fusion protein; assay: A/G assays, told in text
[26] = target: GST-LIMK1 PDZ domain fusion protein (human); assay: A/G assays, told in text
[27] = target: GST-LIMK1 PDZ domain fusion protein (human); assay: A/G plate assays, Table 2 matrix

Measured: binding

SFPPCGHRENVPGQSLVSFV (biotin at the amino-terminus) [Spectrin (beta) C-terminal peptide AA32L, biotinylated]
binds: [1] | [2] | [3]

PSWRRSSLSESENATSLTTF (biotin at the amino-terminus) [BLR-1 C-terminal peptide AA45L, biotinylated]
binds: [4] | [5]

TREDIYVNYPTFSRRPKTRV (biotin at the amino-terminus) [DNAM-1 C-terminal peptide AA22L, biotinylated]
binds: [6] | [7] | [8] | [9] | [10] | [1] | [2] | [3] | [11]

ERLKLEPHEGLLLRFPYAA (chain 1: biotin at the amino-terminus) [CD98 C-terminal peptide AA15L, biotinylated]
binds: [10] | [11]

ISKATPALPTVSISSSAEV (biotin at the amino-terminus) [Clasp-1 C-terminal peptide AA1L, biotinylated]
binds: [12] | [13] | [8] | [9] | [2] | [3]

AWDDSARAAGGQGLHVTAL (biotin at the amino-terminus) [LPAP C-terminal peptide AA30L, biotinylated]
binds: [8] | [2]

SSKSKSSEESQTFFGLYKL (biotin at the amino-terminus) [FasL C-terminal peptide AA23L-M, biotinylated]
binds: [4] | [5]

QGDPALQDAGDSSRKEYFI (biotin at the amino-terminus) [Glycophorin C C-terminal peptide AA37L, biotinylated]
binds: [8] | [9] | [10] | [2] | [3] | [11]

ISGTPTSTMVHGMTSSSSVV (biotin at the amino-terminus) [Clasp-2 C-terminal peptide AA2L, biotinylated]
binds: [14] | [12] | [13] | [8] | [9] | [15] | [16] | [2] | [3]

REVKFTSL [CD46 8-mer competitor peptide REVKFTSL (unlabeled)]
binds: [17] | [18]

ARHRVTSYTSSSVNVSSNL (biotin at the amino-terminus) [CDW128A (IL8RA) C-terminal peptide AA29.1L, biotinylated]
binds: [9] | [3]

KDSRPSFVGSSSGHTSTTL (biotin at the amino-terminus) [CDW128B (IL8RB) C-terminal peptide AA29.2L, biotinylated]
binds: [8] | [9] | [2] | [3]

KKGTYLTDETHREVKFTSL (biotin at the amino-terminus) [CD46 (Form 1) C-terminal peptide AA10L, biotinylated]
binds: [12] | [13] | [8] | [9] | [2] | [3]

PDKFLQCVKNPEDSSCTSEI (chain 1: biotin at the amino-terminus) [CD38 C-terminal peptide AA8L, biotinylated]
binds: [19] | [3]

SVFSIPTLWSPWPPSSSSQL (biotin at the amino-terminus) [CD3n C-terminal peptide AA4L, biotinylated]
binds: [20] | [21]

KDITSDSENSNFRNEIQSLV (biotin at the amino-terminus) [CD95 (Fas) C-terminal peptide AA13L, biotinylated]
binds: [22] | [13] | [9] | [20] | [16] | [23] | [3] | [21] | [24]

LASKSAEEGKQIPDSLSTDL (biotin at the amino-terminus) [DOCK2 C-terminal peptide AA40L, biotinylated]
binds: [12] | [13] | [8] | [9] | [4] | [2] | [3] | [5]

ARKANMKGSYSLVEAQKSKV (biotin at the amino-terminus) [VCAM1 C-terminal peptide AA17L, biotinylated]
binds: [7] | [8] | [25] | [9] | [1] | [2] | [19] | [3]

TTNNNPNSAVNIKKIFTDV (biotin at the amino-terminus) [KV1.3 C-terminal peptide AA33L, biotinylated]
binds: [12] | [13] | [26] | [8] | [9] | [20] | [27] | [2] | [3] | [21]

VTSPNKHLGLVTPHKTELV (biotin at the amino-terminus) [CD83 C-terminal peptide AA47L, biotinylated]
binds: [8] | [9] | [2] | [3]

QATSENGHSARQHVVADTEL (biotin at the amino-terminus) [CD34 C-terminal peptide AA7L, biotinylated]
binds: [8] | [9] | [2] | [3]

CAISGTSSDRGYGSPRYAEV (biotin at the amino-terminus) [Clasp-4 C-terminal peptide AA3L, biotinylated]
binds: [25] | [9] | [19] | [3]

RNEIQSLV [Fas (CD95) 8-mer competitor peptide RNEIQSLV (unlabeled)]
binds: [17] | [18]
